The chains are these.
B1: NAPA (protein, UniProt P54920 1-295)
chain: MDNSGKEAEAMALLAEAERKVKNSQSFFSGLFGGSSKIEEACEIYARAANMFKMAKNWSAAGNAFCQAAQLHLQLQSKHDAATCFVDAGNAFKKADPQEAINCLMRAIEIYTDMGRFTIAAKHHISIAEIYETELVDIEKAIAHYEQSADYYKGEESNSSANKCLLKVAGYAALLEQYQKAIDIYEQVGTNAMDSPLLKYSAKDYFFKAALCHFCIDMLNAKLAVQKYEELFPAFSDSRECKLMKKLLEAHEEQNVDSYTESVKEYDSISRLDQWLTTMLLRIKKTIQGDEEDLR
B2: STX10 (protein, UniProt O60499 1-249)
chain: MSLEDPFFVVRGEVQKAVNTARGLYQRWCELLQESAAVGREELDWTTNELRNGLRSIEWDLEDLEETIGIVEANPGKFKLPAGDLQERKVFVERMREAVQEMKDHMVSPTAVAFLERNNREILAGKPAAQKSPSDLLDASAVSATSRYIEEQQATQQLIMDEQDQQLEMVSGSIQVLKHMSGRVGEELDEQGIMLDAFAQEMDHTQSRMDGVLRKLAKVSHMTSDRRQWCAIAVLVGVLLLVLILLFSL
B3: NAPG (protein, UniProt Q99747 1-312)
chain: MAAQKINEGLEHLAKAEKYLKTGFLKWKPDYDSAASEYGKAAVAFKNAKQFEQAKDACLREAVAHENNRALFHAAKAYEQAGMMLKEMQKLPEAVQLIEKASMMYLENGTPDTAAMALERAGKLIENVDPEKAVQLYQQTANVFENEERLRQAVELLGKASRLLVRGRRFDEAALSIQKEKNIYKEIENYPTCYKKTIAQVLVHLHRNDYVAAERCVRESYSIPGFNGSEDCAALEQLLEGYDQQDQDQVSDVCNSPLFKYMDNDYAKLGLSLVVPGGGIKKKSPATPQAKPDGVTATAADEEEDEYSGGLC
B4: STX6 (protein, UniProt O43752 1-255)
chain: MSMEDPFFVVKGEVQKAVNTAQGLFQRWTELLQDPSTATREEIDWTTNELRNNLRSIEWDLEDLDETISIVEANPRKFNLDATELSIRKAFITSTRQVVRDMKDQMSTSSVQALAERKNRQALLGDSGSQNWSTGTTDKYGRLDRELQRANSHFIEEQQAQQQLIVEQQDEQLELVSGSIGVLKNMSQRIGGELEEQAVMLEDFSHELESTQSRLDNVMKKLAKVSHMTSDRRQWCAIAILFAVLLVVLILFLVL
B5: STX12 (protein, UniProt Q86Y82 1-276)
chain: MSYGPLDMYRNPGPSGPQLRDFSSIIQTCSGNIQRISQATAQIKNLMSQLGTKQDSSKLQENLQQLQHSTNQLAKETNELLKELGSLPLPLSTSEQRQQRLQKERLMNDFSAALNNFQAVQRRVSEKEKESIARARAGSRLSAEERQREEQLVSFDSHEEWNQMQSQEDEVAITEQDLELIKERETAIRQLEADILDVNQIFKDLAMMIHDQGDLIDSIEANVESSEVHVERATEQLQRAAYYQKKSRKKMCILVLVLSVIILILGLIIWLVYKTK
B6: VAMP4 (protein, UniProt O75379 1-141)
chain: MPPKFKRHLNDDDVTGSVKSERRNLLEDDSDEEEDFFLRGPSGPRFGPRNDKIKHVQNQVDEVIDVMQENITKVIERGERLDELQDKSESLSDNATAFSNRSKQLRRQMWWRGCKIKAIMALVAAILLLVIIILIVMKYRT
B7: VPS16, Q9H269 1-839 (protein)
chain: MDCYTANWNPLGDSAFYRKYELYSMDWDLKEELRDCLVAAAPYGGPIALLRNPWRKEKAASVRPVLDIYSASGMPLASLLWKSGPVVSLGWSAEEELLCVQEDGAVLVYGLHGDFRRHFSMGNEVLQNRVLDARIFHTEFGSGVAILTGAHRFTLSANVGDLKLRRMPEVPGLQSAPSCWTVLCQDRVAHILLAVGPDLYLLDHAACSAVTPPGLAPGVSSFLQMAVSFTYRHLALFTDTGYIWMGTASLKEKLCEFNCNIRAPPKQMVWCSRPRSKERAVVVAWERRLMVVGDAPESIQFVLDEDSYLVPELDGVRIFSRSTHEFLHEVPAASEEIFKIASMAPGALLLEAQKEYEKESQKADEYLREIQELGQLTQAVQQCIEAAGHEHQPDMQKSLLRAASFGKCFLDRFPPDSFVHMCQDLRVLNAVRDYHIGIPLTYSQYKQLTIQVLLDRLVLRRLYPLAIQICEYLRLPEVQGVSRILAHWACYKVQQKDVSDEDVARAINQKLGDTPGVSYSDIAARAYGCGRTELAIKLLEYEPRSGEQVPLLLKMKRSKLALSKAIESGDTDLVFTVLLHLKNELNRGDFFMTLRNQPMALSLYRQFCKHQELETLKDLYNQDDNHQELGSFHIRASYAAEERIEGRVAALQTAADAFYKAKNEFAAKATEDQMRLLRLQRRLEDELGGQFLDLSLHDTVTTLILGGHNKRAEQLARDFRIPDKRLWWLKLTALADLEDWEELEKFSKSKKSPIGYLPFVEICMKQHNKYEAKKYASRVGPEQKVKALLLVGDVAQAADVAIEHRNEAELSLVLSHCTGATDGATADKIQRARAQAQKK
B8: VPS11, Q9H270 1-941 (protein)
chain: MAAYLQWRRFVFFDKELVKEPLSNDGAAPGATPASGSAASKFLCLPPGITVCDSGRGSLVFGDMEGQIWFLPRSLQLTGFQAYKLRVTHLYQLKQHNILASVGEDEEGINPLVKIWNLEKRDGGNPLCTRIFPAIPGTEPTVVSCLTVHENLNFMAIGFTDGSVTLNKGDITRDRHSKTQILHKGNYPVTGLAFRQAGKTTHLFVVTTENVQSYIVSGKDYPRVELDTHGCGLRCSALSDPSQDLQFIVAGDECVYLYQPDERGPCFAFEGHKLIAHWFRGYLIIVSRDRKVSPKSEFTSRDSQSSDKQILNIYDLCNKFIAYSTVFEDVVDVLAEWGSLYVLTRDGRVHALQEKDTQTKLEMLFKKNLFEMAINLAKSQHLDSDGLAQIFMQYGDHLYSKGNHDGAVQQYIRTIGKLEPSYVIRKFLDAQRIHNLTAYLQTLHRQSLANADHTTLLLNCYTKLKDSSKLEEFIKKKSESEVHFDVETAIKVLRQAGYYSHALYLAENHAHHEWYLKIQLEDIKNYQEALRYIGKLPFEQAESNMKRYGKILMHHIPEQTTQLLKGLCTDYRPSLEGRSDREAPGCRANSEEFIPIFANNPRELKAFLEHMSEVQPDSPQGIYDTLLELRLQNWAHEKDPQVKEKLHAEAISLLKSGRFCDVFDKALVLCQMHDFQDGVLYLYEQGKLFQQIMHYHMQHEQYRQVISVCERHGEQDPSLWEQALSYFARKEEDCKEYVAAVLKHIENKNLMPPLLVVQTLAHNSTATLSVIRDYLVQKLQKQSQQIAQDELRVRRYREETTRIRQEIQELKASPKIFQKTKCSICNSALELPSVHFLCGHSFHQHCFESYSESDADCPTCLPENRKVMDMIRAQEQKRDLHDQFQHQLKCSNDSFSVIADYFGRGVFNKLTLLTDPPTARLTSSLEAGLQRDLLMHSRRGT
B9: VPS18, Q9P253 1-973 (protein)
chain: MASILDEYENSLSRSAVLQPGCPSVGIPHSGYVNAQLEKEVPIFTKQRIDFTPSERITSLVVSSNQLCMSLGKDTLLRIDLGKANEPNHVELGRKDDAKVHKMFLDHTGSHLLIALSSTEVLYVNRNGQKVRPLARWKGQLVESVGWNKALGTESSTGPILVGTAQGHIFEAELSASEGGLFGPAPDLYFRPLYVLNEEGGPAPVCSLEAERGPDGRSFVIATTRQRLFQFIGRAAEGAEAQGFSGLFAAYTDHPPPFREFPSNLGYSELAFYTPKLRSAPRAFAWMMGDGVLYGALDCGRPDSLLSEERVWEYPEGVGPGASPPLAIVLTQFHFLLLLADRVEAVCTLTGQVVLRDHFLEKFGPLKHMVKDSSTGQLWAYTERAVFRYHVQREARDVWRTYLDMNRFDLAKEYCRERPDCLDTVLAREADFCFRQRRYLESARCYALTQSYFEEIALKFLEARQEEALAEFLQRKLASLKPAERTQATLLTTWLTELYLSRLGALQGDPEALTLYRETKECFRTFLSSPRHKEWLFASRASIHELLASHGDTEHMVYFAVIMQDYERVVAYHCQHEAYEEALAVLARHRDPQLFYKFSPILIRHIPRQLVDAWIEMGSRLDARQLIPALVNYSQGGEVQQVSQAIRYMEFCVNVLGETEQAIHNYLLSLYARGRPDSLLAYLEQAGASPHRVHYDLKYALRLCAEHGHHRACVHVYKVLELYEEAVDLALQVDVDLAKQCADLPEEDEELRKKLWLKIARHVVQEEEDVQTAMACLASCPLLKIEDVLPFFPDFVTIDHFKEAICSSLKAYNHHIQELQREMEEATASAQRIRRDLQELRGRYGTVEPQDKCATCDFPLLNRPFYLFLCGHMFHADCLLQAVRPGLPAYKQARLEELQRKLGAAPPPAKGSARAKEAEGGAATAGPSREQLKADLDELVAAECVYCGELMIRSIDRPFIDPQRYEEEQLSWL
B10: VPS39, Q96JC1 1-886 (protein)
chain: MHDAFEPVPILEKLPLQIDCLAAWEEWLLVGTKQGHLLLYRIRKDVVPADVASPESGSCNRFEVTLEKSNKNFSKKIQQIHVVSQFKILVSLLENNIYVHDLLTFQQITTVSKAKGASLFTCDLQHTETGEEVLRMCVAVKKKLQLYFWKDREFHELQGDFSVPDVPKSMAWCENSICVGFKRDYYLIRVDGKGSIKELFPTGKQLEPLVAPLADGKVAVGQDDLTVVLNEEGICTQKCALNWTDIPVAMEHQPPYIIAVLPRYVEIRTFEPRLLVQSIELQRPRFITSGGSNIIYVASNHFVWRLIPVPMATQIQQLLQDKQFELALQLAEMKDDSDSEKQQQIHHIKNLYAFNLFCQKRFDESMQVFAKLGTDPTHVMGLYPDLLPTDYRKQLQYPNPLPVLSGAELEKAHLALIDYLTQKRSQLVKKLNDSDHQSSTSPLMEGTPTIKSKKKLLQIIDTTLLKCYLHTNVALVAPLLRLENNHCHIEESEHVLKKAHKYSELIILYEKKGLHEKALQVLVDQSKKANSPLKGHERTVQYLQHLGTENLHLIFSYSVWVLRDFPEDGLKIFTEDLPEVESLPRDRVLGFLIENFKGLAIPYLEHIIHVWEETGSRFHNCLIQLYCEKVQGLMKEYLLSFPAGKTPVPAGEEEGELGEYRQKLLMFLEISSYYDPGRLICDFPFDGLLEERALLLGRMGKHEQALFIYVHILKDTRMAEEYCHKHYDRNKDGNKDVYLSLLRMYLSPPSIHCLGPIKLELLEPKANLQAALQVLELHHSKLDTTKALNLLPANTQINDIRIFLEKVLEENAQKKRFNQVLKNLLHAEFLRVQEERILHQQVKCIITEEKVCMVCKKKIGNSAFARYPNGVVVHYFCSKEVNPADT

These are yes or no findings as the source states them, for the method shown. Binding seen in cells or lysates may run through a third protein. A yes stands for co-enrichment or nearness to the bait. Other partners may have been found.

One assay addresses SARS-CoV-2 ORF7b, SFB- or BioID2-tagged (SARS-CoV-2) (UniProt P0DTD8). The experiment in a line: affinity purification with mass spectrometry + proximity labelling.
Settings: not given
B1: the binding entry is given as “binds”. For the molecule B2, the binding entry is listed as “binds”.

Consider B3, for which the binding entry is given as “binds”. Turning to B4, the binding entry is listed as “binds”. For the molecule B5, the binding result was “binds”. In the case of B6, the binding result was “binds”.

The target of a further assay is SARS-CoV-2 ORF3a, SFB- or BioID2-tagged (SARS-CoV-2), P0DTC3. The assay is described as above. The settings on record: remark: other sources report otherwise.
For the molecule B7, the binding entry is reported as “binds”. B8: the binding entry was “binds”. Still for that read-out and setting: to B9 belongs “binds”; to B10, “binds”.

These data come from publication doi:10.1101/2020.12.31.424961.
